Source: article doi:10.1101/2025.10.03.680331
Results are given in words; binding and its absence hold for the method and conditions named. In cells and extracts the contact can be indirect. A yes stands for co-enrichment or nearness to the bait. Other partners may have been found. Where a sequence is shown, tags or fusion partners need not be part of it.

Target: T1, GST-tagged mouse GlialCAM cytosolic tail (mouse) (UniProt Q640R3)
T1 sequence: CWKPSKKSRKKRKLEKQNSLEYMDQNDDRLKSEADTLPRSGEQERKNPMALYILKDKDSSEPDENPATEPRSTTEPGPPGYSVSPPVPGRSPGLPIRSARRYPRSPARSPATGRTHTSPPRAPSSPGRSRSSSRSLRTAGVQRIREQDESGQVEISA
Assay: affinity purification with mass spectrometry

B1: phosphofructokinase muscle type PFKM (protein, UniProt P47857 1-780)
chain: MTHEEHHAAKTLGIGKAIAVLTSGGDAQGMNAAVRAVVRVGIFTGARVFFVHEGYQGLVDGGEHIREATWESVSMMLQLGGTVIGSARCKDFREREGRLRAAHNLVKRGITNLCVIGGDGSLTGADTFRSEWSDLLNDLQKDGKITAEEATKSSYLNIVGLVGSIDNDFCGTDMTIGTDSALHRIVEIVDAITTTAQSHQRTFVLEVMGRHCGYLALVTSLSCGADWVFIPECPPDDDWEEHLCRRLSETRTRGSRLNIIIVAEGAIDKNGKPITSEDIKNLVVKRLGYDTRVTVLGHVQRGGTPSAFDRILGSRMGVEAVMALLEGTPDTPACVVSLSGNQAVRLPLMECVQVTKDVTKAMDEKRFDEAIKLRGRSFMNNWEVYKLLAHVRPPVSKGGLHTVAVMNVGAPAAGMNAAVRSTVRIGLIQGNRVLVVHDGFEGLAKGQIEEAGWSYVGGWTGQGGSKLGTKRTLPKKNLEQISANITKFNIQGLVIIGGFEAYTGGLELMEGRKQFDELCIPFVVIPATVSNNVPGSDFSIGADTALNTICTTCDRIKQSAAGTKRRVFIIETMGGYCGYLATMAGLAAGADAAYIFEEPFTIRDLQVNVEHLVQKMKTTVKRGLVLRNEKCNENYTTDFIFNLYSEEGKGIFDSRKNVLGHMQQGGSPTPFDRNFATKMGAKAMNWMSGKIKESYRNGRIFANTPDSGCVLGMRKRALVFQPVTELKDQTDFEHRIPKEQWWLKLRPILKILAKYEIDLDTSDHAHLEHISRKRSGEAAV
binding: binds
